Reference: paper PMC10758102
No constants are given. Whether binding was seen depends on the method and setting. In cells and extracts the contact can be indirect. Some binding calls cover weakened binding; strength is not graded here.

Amino acid sequences for entries named in this document (tags omitted). Residues count along the entry.
UniProt O14786, residues 22-923: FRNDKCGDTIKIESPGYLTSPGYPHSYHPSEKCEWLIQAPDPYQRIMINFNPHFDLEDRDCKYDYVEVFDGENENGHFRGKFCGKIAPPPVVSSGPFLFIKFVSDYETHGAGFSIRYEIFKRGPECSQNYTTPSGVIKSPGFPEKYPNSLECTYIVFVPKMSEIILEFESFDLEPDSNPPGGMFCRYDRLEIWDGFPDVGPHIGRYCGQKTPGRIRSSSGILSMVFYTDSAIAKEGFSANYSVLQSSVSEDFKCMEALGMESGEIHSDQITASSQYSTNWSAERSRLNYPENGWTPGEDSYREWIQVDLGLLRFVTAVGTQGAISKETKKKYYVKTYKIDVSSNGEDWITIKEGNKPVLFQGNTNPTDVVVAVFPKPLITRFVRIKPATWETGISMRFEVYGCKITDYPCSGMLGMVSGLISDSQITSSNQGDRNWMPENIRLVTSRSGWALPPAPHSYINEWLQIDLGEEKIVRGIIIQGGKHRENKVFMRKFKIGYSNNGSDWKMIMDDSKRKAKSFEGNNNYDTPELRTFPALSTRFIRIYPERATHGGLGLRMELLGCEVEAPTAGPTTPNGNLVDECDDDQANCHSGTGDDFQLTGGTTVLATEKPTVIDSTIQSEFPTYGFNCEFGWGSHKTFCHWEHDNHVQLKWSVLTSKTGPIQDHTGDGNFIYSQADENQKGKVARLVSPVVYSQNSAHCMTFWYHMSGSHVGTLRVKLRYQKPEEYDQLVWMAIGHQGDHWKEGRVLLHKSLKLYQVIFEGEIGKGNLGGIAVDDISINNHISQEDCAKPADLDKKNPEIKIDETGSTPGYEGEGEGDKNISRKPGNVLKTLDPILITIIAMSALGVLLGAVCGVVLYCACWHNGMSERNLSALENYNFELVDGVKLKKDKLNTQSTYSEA

T1: GTPase-activating protein and VPS9 domain-containing protein 1 (GAPVD1) (human (endogenous in MDA-MB-231 and SUM159)) (UniProt Q14C86)
T1 sequence: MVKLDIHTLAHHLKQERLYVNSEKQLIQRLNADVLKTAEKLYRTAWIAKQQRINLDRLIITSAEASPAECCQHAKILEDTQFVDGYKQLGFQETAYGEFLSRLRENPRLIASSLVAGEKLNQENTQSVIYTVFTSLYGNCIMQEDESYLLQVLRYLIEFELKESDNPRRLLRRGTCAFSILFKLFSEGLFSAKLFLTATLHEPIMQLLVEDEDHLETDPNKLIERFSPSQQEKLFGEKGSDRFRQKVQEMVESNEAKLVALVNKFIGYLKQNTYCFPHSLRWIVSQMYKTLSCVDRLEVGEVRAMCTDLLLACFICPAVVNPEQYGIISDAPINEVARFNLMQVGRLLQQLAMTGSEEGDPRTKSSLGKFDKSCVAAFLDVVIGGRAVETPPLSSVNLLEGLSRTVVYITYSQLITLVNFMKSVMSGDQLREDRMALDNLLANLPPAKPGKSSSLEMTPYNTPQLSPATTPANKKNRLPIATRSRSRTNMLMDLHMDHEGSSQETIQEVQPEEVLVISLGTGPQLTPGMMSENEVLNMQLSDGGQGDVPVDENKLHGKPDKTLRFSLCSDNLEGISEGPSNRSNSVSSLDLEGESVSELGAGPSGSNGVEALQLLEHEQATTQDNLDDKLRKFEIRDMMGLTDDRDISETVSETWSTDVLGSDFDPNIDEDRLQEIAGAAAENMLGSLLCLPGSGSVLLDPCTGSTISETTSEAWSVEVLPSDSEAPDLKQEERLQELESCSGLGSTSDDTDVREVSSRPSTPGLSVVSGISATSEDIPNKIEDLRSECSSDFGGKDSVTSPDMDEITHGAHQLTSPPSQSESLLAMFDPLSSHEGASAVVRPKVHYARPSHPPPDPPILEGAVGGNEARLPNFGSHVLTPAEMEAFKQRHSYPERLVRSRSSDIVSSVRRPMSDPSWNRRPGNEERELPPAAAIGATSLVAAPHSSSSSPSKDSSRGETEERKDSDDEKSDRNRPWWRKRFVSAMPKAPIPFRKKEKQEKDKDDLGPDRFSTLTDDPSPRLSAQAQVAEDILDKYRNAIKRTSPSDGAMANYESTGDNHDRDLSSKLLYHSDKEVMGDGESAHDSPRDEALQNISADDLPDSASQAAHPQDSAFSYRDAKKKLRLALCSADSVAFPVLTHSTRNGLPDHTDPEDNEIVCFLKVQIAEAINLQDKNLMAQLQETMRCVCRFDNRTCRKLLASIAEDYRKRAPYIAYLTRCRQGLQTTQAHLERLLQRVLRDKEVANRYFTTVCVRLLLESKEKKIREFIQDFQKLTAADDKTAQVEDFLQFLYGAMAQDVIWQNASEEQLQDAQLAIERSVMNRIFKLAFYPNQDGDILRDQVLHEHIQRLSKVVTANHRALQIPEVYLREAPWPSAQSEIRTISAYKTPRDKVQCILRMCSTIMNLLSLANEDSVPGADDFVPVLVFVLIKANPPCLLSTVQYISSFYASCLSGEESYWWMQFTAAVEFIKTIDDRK


Legend:
[1] = molecular target: T1, GTPase-activating protein and VPS9 domain-containing protein 1 (GAPVD1) (human (endogenous in MDA-MB-231 and SUM159)); test: co-IP; endogenous proteins in TNBC whole-cell extracts (RIPA with phosphatase and protease inhibitors); primary antibody or normal rabbit IgG overnight at 4 °C, protein A/G agarose beads, Western blot
[2] = molecular target: neuropilin-1 (NRP-1) (human (endogenous in MDA-MB-231 and SUM159)) (UniProt O14786); test: as above

binding [1] | binding [2] | Molecule
binds |  | neuropilin-1 (NRP-1) (from UniProt O14786 22-923) (receptor)
 | binds | GTPase-activating protein and VPS9 domain-containing protein 1 (GAPVD1) (protein, UniProt Q14C86 1-1478) MVKLDIHTLAHHLKQERLYVNSEKQLIQRLNADVLKTAEKLYRTAWIAKQQRINLDRLIITSAEASPAECCQHAKILEDTQFVDGYKQLGFQETAYGEFLSRLRENPRLIASSLVAGEKLNQENTQSVIYTVFTSLYGNCIMQEDESYLLQVLRYLIEFELKESDNPRRLLRRGTCAFSILFKLFSEGLFSAKLFLTATLHEPIMQLLVEDEDHLETDPNKLIERFSPSQQEKLFGEKGSDRFRQKVQEMVESNEAKLVALVNKFIGYLKQNTYCFPHSLRWIVSQMYKTLSCVDRLEVGEVRAMCTDLLLACFICPAVVNPEQYGIISDAPINEVARFNLMQVGRLLQQLAMTGSEEGDPRTKSSLGKFDKSCVAAFLDVVIGGRAVETPPLSSVNLLEGLSRTVVYITYSQLITLVNFMKSVMSGDQLREDRMALDNLLANLPPAKPGKSSSLEMTPYNTPQLSPATTPANKKNRLPIATRSRSRTNMLMDLHMDHEGSSQETIQEVQPEEVLVISLGTGPQLTPGMMSENEVLNMQLSDGGQGDVPVDENKLHGKPDKTLRFSLCSDNLEGISEGPSNRSNSVSSLDLEGESVSELGAGPSGSNGVEALQLLEHEQATTQDNLDDKLRKFEIRDMMGLTDDRDISETVSETWSTDVLGSDFDPNIDEDRLQEIAGAAAENMLGSLLCLPGSGSVLLDPCTGSTISETTSEAWSVEVLPSDSEAPDLKQEERLQELESCSGLGSTSDDTDVREVSSRPSTPGLSVVSGISATSEDIPNKIEDLRSECSSDFGGKDSVTSPDMDEITHGAHQLTSPPSQSESLLAMFDPLSSHEGASAVVRPKVHYARPSHPPPDPPILEGAVGGNEARLPNFGSHVLTPAEMEAFKQRHSYPERLVRSRSSDIVSSVRRPMSDPSWNRRPGNEERELPPAAAIGATSLVAAPHSSSSSPSKDSSRGETEERKDSDDEKSDRNRPWWRKRFVSAMPKAPIPFRKKEKQEKDKDDLGPDRFSTLTDDPSPRLSAQAQVAEDILDKYRNAIKRTSPSDGAMANYESTGDNHDRDLSSKLLYHSDKEVMGDGESAHDSPRDEALQNISADDLPDSASQAAHPQDSAFSYRDAKKKLRLALCSADSVAFPVLTHSTRNGLPDHTDPEDNEIVCFLKVQIAEAINLQDKNLMAQLQETMRCVCRFDNRTCRKLLASIAEDYRKRAPYIAYLTRCRQGLQTTQAHLERLLQRVLRDKEVANRYFTTVCVRLLLESKEKKIREFIQDFQKLTAADDKTAQVEDFLQFLYGAMAQDVIWQNASEEQLQDAQLAIERSVMNRIFKLAFYPNQDGDILRDQVLHEHIQRLSKVVTANHRALQIPEVYLREAPWPSAQSEIRTISAYKTPRDKVQCILRMCSTIMNLLSLANEDSVPGADDFVPVLVFVLIKANPPCLLSTVQYISSFYASCLSGEESYWWMQFTAAVEFIKTIDDRK
